Test results taken from patent US11579152B2, “Engineered hERG channel proteins, vesicles and methods of identifying small molecule pharmacological agents” (priority 2016, dated 2023).

Sequences of proteins named here, by UniProt entry; tags and fusion partners are left off. A line that says so, or that is headed by a name, gives the form on record, which may keep a tag or linker.
UniProt Q12809, with tags, fused parts or gaps DEL141-380/DEL871-1005: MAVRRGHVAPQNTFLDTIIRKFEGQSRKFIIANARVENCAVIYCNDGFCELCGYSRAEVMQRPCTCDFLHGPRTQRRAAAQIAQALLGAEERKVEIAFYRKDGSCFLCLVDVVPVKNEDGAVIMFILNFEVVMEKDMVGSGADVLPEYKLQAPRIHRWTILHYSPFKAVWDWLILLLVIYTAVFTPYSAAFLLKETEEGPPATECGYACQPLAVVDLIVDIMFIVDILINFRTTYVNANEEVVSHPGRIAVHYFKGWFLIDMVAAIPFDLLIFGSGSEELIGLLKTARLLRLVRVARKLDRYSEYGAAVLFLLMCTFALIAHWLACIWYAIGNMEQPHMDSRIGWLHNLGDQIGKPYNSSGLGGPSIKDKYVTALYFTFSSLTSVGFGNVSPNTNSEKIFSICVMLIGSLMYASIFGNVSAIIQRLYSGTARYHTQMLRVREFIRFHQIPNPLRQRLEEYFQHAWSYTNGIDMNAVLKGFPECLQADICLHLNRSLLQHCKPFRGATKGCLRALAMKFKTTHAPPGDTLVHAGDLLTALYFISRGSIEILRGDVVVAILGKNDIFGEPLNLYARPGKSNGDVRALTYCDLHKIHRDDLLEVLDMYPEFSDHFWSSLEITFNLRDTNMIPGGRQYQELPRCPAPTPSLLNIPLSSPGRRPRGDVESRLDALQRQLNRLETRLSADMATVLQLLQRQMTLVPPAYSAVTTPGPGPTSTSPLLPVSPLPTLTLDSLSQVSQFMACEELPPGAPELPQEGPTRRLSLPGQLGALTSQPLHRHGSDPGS

How the values were obtained:
hERG = hERG (Homo sapiens, UniProt Q12809); conditions: read-out: IC50 patch; electrophysiology-determined values reported in the literature; cited from earlier work
hERG channel = hERG channel (Homo sapiens, UniProt Q12809, DEL141-380/DEL871-1005); experiment: biochemical

For CCN(CC)CCOc1ccc(C(=C(Cl)c2ccccc2)c2ccccc2)cc1 [Clomiphene], the IC50 (hERG) is given as 180 nM and the IC50 (hERG channel) is given as 4580 ± 598 nM.
